# Laboratory results published in the supplement of paper PMC8728848.
# The list shows a part of the results.
# B1: EULS2 M3 (Oryza sativa) (protein)
# chain: MVYCRANPNYAMTARNGAVVLAPANPKDEYQHWIKDMRWSTSIKDEEGYPAFALVNKATGQAIKHSLGQSHPVRLVPYNPEVMDESVLWTESRDVGNGFRCIRMVNNIYLNFDAFHGDKYHGGVRDGTDIVLWKLCEGDSLRWKIQPYYILEQKLISEEDLNSAVDHHHHHH
# Key:
# [1] = target: Neu5Gc(a2-8)Neu5Gc(a2-6)Gal(b1-4)GlcNAc; assay: glycan array binding signal (z-score within array); higher = stronger binding; details: glycan notation: IUPAC condensed, linker removed
# Method in brief: (§1)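 Glycan array data came from 3228 arrays in the Consortium for Functional Glycomics database, and only arrays with an available protein sequence were kept. Glycan names were put into IUPAC-condensed notation, and columns mapping to the same glycan were averaged. The binding signal is a within-array Z-score, averaged across arrays of one protein sequence run at different concentrations or buffers and across linkers. A negative Z-score can be read as non-binding.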
# [2] = target: Neu5Gc(b2-6)Gal(b1-4)GlcNAc; assay: as above; details: glycan notation: IUPAC condensed, linker removed
# Method in brief: as §1
binder,measurement,setting,value
B1,glycan array binding signal (z-score),[1],-0.549
same,glycan array binding signal (z-score),[2],0.7
